Source: patent publication US5972958A, “4-aminoalkoxy-1,3-dihydro-benzoimidazol-2-thiones” (American Home Products Corporation, priority 1998, dated 1999)

System: dopamine D2 receptor
Test: Intrinsic activity at the dopamine D2 receptor, ratio LowAg/HighAg
Assay type: binding
Conditions: LowAg/HighAg: IC50 D2 Spiper / IC50 D2 Quin.

Row | Structure (SMILES) | Ratio
1 | S=c1[nH]c2cc(Cl)cc(OCCNCc3ccsc3)c2[nH]1 [Example 9, 6-Chloro-4-{2-[(thiophen-3-ylmethyl)-amino]-ethoxy}-1,3-dihydro-benzoimidazole-2-thione] | 472.2
2 | S=c1[nH]c2cccc(OCCNCc3ccc(Cl)cc3)c2[nH]1 [Example 6, 4-[2-(4-Chloro-benzylamino)-ethoxy]-1,3-dihydro-benzoimidazole-2-thione] | 409.3
3 | S=c1[nH]c2cccc(OCCNCc3cccc4ccccc34)c2[nH]1 [Example 4, 4-{2-[(Naphthalen-1-ylmethyl)-amino]-ethoxy}-1,3-dihydro-benzoimidazole-2-thione] | 85.8
4 | S=c1[nH]c2cccc(OCCN3CCc4ccccc4C3)c2[nH]1 [Example 10, 4-[2-(3,4-Dihydro-1H-isoquinolin-2-yl)-ethoxy]-1,3-dihydro-benzoimidazole-2-thione] | 87.6
5 | CC(C)(C)c1ccc(CNCCOc2cccc3[nH]c(=S)[nH]c23)cc1 [Example 5, 4-[2-(4-tert-Butyl-benzylamino)-ethoxy]-1,3-dihydro-benzoimidazole-2-thione] | 8.4
6 | Cc1ccc(CNCCOc2cccc3[nH]c(=S)[nH]c23)cc1 [Example 2, 4-[2-(4-Methyl-benzylamino)-ethoxy]-1,3-dihydro-benzoimidazole-2-thione] | 89.8
7 | S=c1[nH]c2cc(Cl)cc(OCCNCc3ccccc3)c2[nH]1 [Example 7, 4-(2-Benzylamino-ethoxy)-6-chloro-1,3-dihydro-benzoimidazole-2-thione] | 139.0
8 | S=c1[nH]c2cccc(OCCNCc3ccccc3)c2[nH]1 [Example 1, 4-(2-Benzylamino-ethoxy)-1,3-dihydro-benzoimidazol-2-thione] | 92.6
9 | S=c1[nH]c2cc(Cl)cc(OCCNCc3cccs3)c2[nH]1 [Example 8, 6-Chloro-4-{2-[(thiophen-2-ylmethyl)-amino]-ethoxy}-1,3-dihydro-benzoimidazole-2-thione] | 237.8
10 | S=c1[nH]c2cccc(OCCCNCc3ccccc3)c2[nH]1 [Example 3] | 79.9
